We go through one molecule from PMC5053674.

The target in the assay is human epidermal growth factor receptor 2 (ErbB2/Her2) (human (endogenous in BT474 and BT474-TR)) (UniProt P04626). Kind of assay: co-IP; immunoprecipitation of Her2 (anti-Her2 antibody on beads, 2 mg lysate, overnight at 4°C, washed with RIPA buffer) from BT474-TR and BT474 lysates, western blotting; IgG as control; for c-Cbl: cells transfected with vector or ATG9A-encoding plasmid, trastuzumab 20 μg/ml for 48 hours. (In general: In western blotting, separated proteins are transferred to a membrane and probed.)

These are yes or no findings as the source states them, for the method shown. In cells and extracts the contact can be indirect.

B1: autophagy related protein 9A (ATG9A) (protein, UniProt Q7Z3C6 1-839)
chain: MAQFDTEYQRLEASYSDSPPGEEDLLVHVAEGSKSPWHHIENLDLFFSRVYNLHQKNGFTCMLIGEIFELMQFLFVVAFTTFLVSCVDYDILFANKMVNHSLHPTEPVKVTLPDAFLPAQVCSARIQENGSLITILVIAGVFWIHRLIKFIYNICCYWEIHSFYLHALRIPMSALPYCTWQEVQARIVQTQKEHQICIHKRELTELDIYHRILRFQNYMVALVNKSLLPLRFRLPGLGEAVFFTRGLKYNFELILFWGPGSLFLNEWSLKAEYKRGGQRLELAQRLSNRILWIGIANFLLCPLILIWQILYAFFSYAEVLKREPGALGARCWSLYGRCYLRHFNELEHELQSRLNRGYKPASKYMNCFLSPLLTLLAKNGAFFAGSILAVLIALTIYDEDVLAVEHVLTTVTLLGVTVTVCRSFIPDQHMVFCPEQLLRVILAHIHYMPDHWQGNAHRSQTRDEFAQLFQYKAVFILEELLSPIVTPLILIFCLRPRALEIIDFFRNFTVEVVGVGDTCSFAQMDVRQHGHPQWLSAGQTEASVYQQAEDGKTELSLMHFAITNPGWQPPRESTAFLGFLKEQVQRDGAAASLAQGGLLPENALFTSIQSLQSESEPLSLIANVVAGSSCRGPPLPRDLQGSRHRAEVASALRSFSPLQPGQAPTGRAHSTMTGSGVDARTASSGSSVWEGQLQSLVLSEYASTEMSLHALYMHQLHKQQAQAEPERHVWHRRESDESGESAPDEGGEGARAPQSIPRSASYPCAAPRPGAPETTALHGGFQRRYGGITDPGTVPRVPSHFSRLPLGGWAEDGQSASRHPEPVPEEGSEDELPPQVHKV
As for B1, the binding entry was “no binding”.
